# PubChem BioAssay AID743456 | Peter MacCallum Cancer Centre | 2014
# Assay: 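Identify miRNAs tied to vorinostat resistance or sensitivity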 (primary screen)
# Cell system: human HCT116-VR colon cancer cells, a vorinostat-resistant HCT116 line
# Reagent: miRNA mimic
# Time to read-out: about 3 days from transfection to readout; drug present for the last 24 h
# Challenge: vorinostat at 2.5 µM final for 24 h
# Detection: 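Cell viability from CellTiter-Fluor signal and caspase activity from luminescence after 24 h vorinostat at 2.5 µM, given as robust z-scores and as ratios to mock-transfected wells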
# Direction: viability robust z-score and viability vs mock transfection: higher = more viable cells; caspase robust z-score: higher = more caspase activity, more apoptosis
# Active means: 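a mimic counts as active if it lands in a lowered-viability class or a caspase-activation class; wells with too few cells without drug are left out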
# The whole screen tested 878 reagents; this is a random part of them. In the full data, 27 (3.1%) are marked active. 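27 mimics are marked active, unlike an earlier stated count of 24; the viability threshold is described inconsistently.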 The record does not give: the amount of reagent.
microRNA,viability robust z-score,caspase robust z-score,viability hit class,caspase hit class,viability vs mock transfection,Outcome
hsa-miR-501-5p,-1.56,-0.57,no change,no change,0.53,inactive
hsa-let-7d,-0.41,0.16,no change,no change,0.72,inactive
hsa-miR-571,-0.71,-0.44,no change,no change,0.68,inactive
hsa-miR-301b,0.56,0.16,no change,no change,0.88,inactive
hsa-miR-33a*,0.85,-0.64,no change,no change,0.9,inactive
hsa-miR-1283,1.74,-0.24,no change,no change,1.06,inactive
hsa-miR-497,-2.2,2.16,no change,no change,0.36,inactive
hsa-miR-193b,-3.8,2.27,no change,no change,0.16,inactive
hsa-miR-339-5p,-1.19,0.07,no change,no change,0.59,inactive
hsa-miR-485-3p,0.15,-0.05,no change,no change,0.77,inactive
hsa-miR-34a,-1.62,2.44,no change,no change,0.52,inactive
hsa-miR-93*,-2.24,3.96,no change,no change,0.45,inactive
hsa-miR-1204,-0.9,2.2,no change,no change,0.64,inactive
hsa-miR-1259,0.74,-0.06,no change,no change,0.88,inactive
hsa-miR-876-5p,-0.32,-0.15,no change,no change,0.74,inactive
hsa-miR-1274a,0.18,-0.2,no change,no change,0.82,inactive
hsa-miR-23b*,0.48,0.41,no change,no change,0.86,inactive
hsa-miR-92a,0.34,-0.12,no change,no change,0.84,inactive
hsa-miR-23a*,1.17,-0.5,no change,no change,0.98,inactive
hsa-miR-181c*,-1.21,-0.64,no change,no change,0.62,inactive
hsa-miR-548b-5p,-0.04,0.24,no change,no change,0.78,inactive
hsa-miR-30d*,-0.32,-0.92,no change,no change,0.7,inactive
hsa-miR-606,1.04,0.02,no change,no change,0.96,inactive
hsa-miR-138-1*,-0.03,-0.8,no change,no change,0.78,inactive
hsa-miR-1975,1.75,-0.23,no change,no change,1.06,inactive
hsa-miR-296-3p,0.53,-0.07,no change,no change,0.88,inactive
hsa-miR-665,-0.54,1.09,no change,no change,0.7,inactive
hsa-miR-1322,0.24,0.34,no change,no change,0.82,inactive
hsa-miR-768-5p,-0.38,-0.41,no change,no change,0.68,inactive
hsa-miR-135a,-0.03,-0.77,no change,no change,0.78,inactive
hsa-miR-135b,-0.2,-0.73,no change,no change,0.76,inactive
hsa-miR-369-5p,0.45,-0.6,no change,no change,0.83,inactive
hsa-miR-486-5p,-0.74,0.78,no change,no change,0.66,inactive
hsa-miR-1226*,1.04,-0.4,no change,no change,0.97,inactive
